Test results from patent US20210403546A1.
No constants are given. Whether binding was seen depends on the method and setting. A result given as binding can be weak or reduced; the word gives no strength.

Legend:
[1] = target: TGF-β1 (species not stated for this assay) (Homo sapiens (Human)); test: SPR (Biacore T200), Fab over amine-coupled TGF-β1
[2] = target: TGF-β1 (species not stated for this assay) (Homo sapiens (Human)); test: ELISA on immobilized TGFβ1; positive control
[3] = target: TGF-β1 (species not stated for this assay) (Homo sapiens (Human)); test: ELISA on plate-coated TGFβ1; positive control

binding [1]	binding [2]	binding [3]	Binder
binds	–	–	13A1_2B Fab (LCR13A1_VH_GLv1_03_LCR13A1_VK_GLv3, stable Fab) (Fab, V domains shown) VH: QVQLVQSGSVLAKPGASVKVSCKASGYTFTNYWMHWVRQAPGQGLEWIGTIYPGNSDTNYNQKFKDRAKLTAVTSTSTVYMELSSLRSEDTAVYYCTREDSRSLYYNGWDYFDYWGQGTLVTVSS VL: DIVMTQSPDSLAVSLGERATINCKSSESVDNYGISFLNWFQQKPGKAPKLLIYAASNQGSGVPDRFSGSGSGTDFTLTISSLQAEDVAVYFCQQSKEVPRTFGGGTKLEIK
binds	–	–	13A1_2F Fab (LCR13A1_VK_GLv1_05 + LCR13A1_VH_GLv1_03, stable Fab) (Fab, V domains shown) VH: QVQLVQSGSVLAKPGASVKVSCKASGYTFTNYWMHWVRQAPGQGLEWIGTIYPGNSDTNYNQKFKDRAKLTAVTSTSTVYMELSSLRSEDTAVYYCTREDSRSLYYNGWDYFDYWGQGTLVTVSS VL: DIVMTQSPDSLAVSLGERATISCRASESVDNYGISFLNWFQQKPGQPPKLLIYAASNQGSGVPSRFSGSGSGTDFTLNIHPLEAEDAATYYCQQSKEVPRTFGGGTKVEIK
–	binds	binds	LCR13A1_VH_GLv1_03_LCR13A1_VK_GLv1_05 (LCR13A1-2F) IgG4[S228P] (antibody, V domains shown) VH: QVQLVQSGSVLAKPGASVKVSCKASGYTFTNYWMHWVRQAPGQGLEWIGTIYPGNSDTNYNQKFKDRAKLTAVTSTSTVYMELSSLRSEDTAVYYCTREDSRSLYYNGWDYFDYWGQGTLVTVSS VL: DIVMTQSPDSLAVSLGERATISCRASESVDNYGISFLNWFQQKPGQPPKLLIYAASNQGSGVPSRFSGSGSGTDFTLNIHPLEAEDAATYYCQQSKEVPRTFGGGTKVEIKR
